## Percent effect of library compounds

Mtb glucose medium: 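Whole-cell growth test on Mycobacterium tuberculosis, read after 3 days in glucose-containing 7H9 medium; the read-out is not stated. Concentration: 50 µM. Higher reads as more growth inhibition (inferred: compounds with an IC50 in retests scored well above the rest). Size under these conditions: about 69,000 compounds, about 760 of them at 50% or above in at least one test.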
Mtb cholesterol medium: 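Whole-cell growth test on Mycobacterium tuberculosis, read after 4 days in a medium based on cholesterol and the lipid DPPC; the read-out is not stated. Compounds at 50 µM. The record gives no direction; compounds that gave an IC50 in retests scored well above the rest, so higher reads as more growth inhibition. Of about 69,000 compounds tested this way, about 370 (0.54%) reached 50% or more in at least one test.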

The filed quantity is “Percent Effect” (%). How 0% and 100% were set is not recorded. Most values in the screen are low, and negative values occur. This is an unselected part of the compounds tested. Two or more numbers in one place are separate tests of the same structure; such repeats can differ widely.

| SMILES | Mtb glucose medium | Mtb cholesterol medium |
|---|---|---|
| `COCCN(Cc1ccc(F)cc1Cl)C(=O)c1cc(C)n[nH]1` | 2.583% and -2.425% | 3.369% |
| `O=C1CCc2cc(-c3csc(CCN4CCCC4=O)n3)ccc2N1` | -15.05% | -26.1% |
| `CCc1ccc(C(=O)N2CCCC(n3nc(C)nc3C)C2)o1` (stereo not shown) | 15.81% | -2.638% |
| `Cn1ccnc1C(=O)N1CCC2(CC1)CC(Oc1cccnc1)CO2.O=C(O)C(F)(F)F` (stereo not shown) | 2.15% | 2.46% |
| `COc1ccc(CNC(=O)N2CCOCC2C2CC2)c(C)c1` (stereo not shown) | -17.8% | -6.538% and -14.02% |
| `CCN(CC)Cc1nc(Cc2cccc(C(F)(F)F)c2)no1` | -3.777% and 1.085% | 8.709% |
| `CN(CCc1ccccn1)C(=O)C(c1cccnc1)N1CCOCC1` (stereo not shown) | -13.35% | -2.499% |
| `[H][C@]12CN(C(=O)OC)CCN1C[C@@H](c1ccccc1)[C@@H]2C(=O)OCC` | 12.43% | 4.842% |
| `NC(=O)Nc1cccc(CNC(=O)CCCOCc2ccccc2)c1` | -3.209% and -7.311% | -19.86% |
| `COc1ccc2c(=O)ccn(CC(=O)O)c2c1` | -22.04% | -14.72% |
| `O=C(c1sccc1C1CC1)N1CCN(CC(F)(F)F)CC1` | -0.5931% | -10.44% |
| `Cc1nnc(NC(=O)NCc2ccoc2)s1` | 2.264% | -13.3% |
| `CC1=C[C@@H](CC#N)[C@H](C(C)C)C[C@H]1CC(=O)N1CCN(C)CC1` | -14.99% and -31.13% | -22.39% |
| `Cc1ncc(S(=O)(=O)Nc2ccnn2C(C)C)[nH]1` | -20.72% | 10.37% |
| `O=CO.c1cc2nccc(CC3CCCN(C4CCOCC4)CC3)c2cn1` (stereo not shown) | -7.227% | -2.473% |
| `Fc1ccc(C2(CNCC(F)F)CCOC2)cc1` (stereo not shown) | 21.73% | -0.5362% |
| `COCCN(CCOC)C(=O)c1cnn(C)c1C` | 7.466% | 1.165% |
| `CCc1nc(CN2CCCN(C(=O)c3cnc(C)cn3)CC2)cs1` | -1.949% | 6.582% |
| `CCn1c(C)cc(C(=O)N2CCCC(n3ccnc3C)C2)c1C` (stereo not shown) | -5.601% | -15.81% |
| `O=C(O)C(F)(F)F.O=C(O)C(F)(F)F.[H][C@@]12CN(Cc3ccoc3)C[C@]1([H])C(=O)N(CCN1CCCC1)C2` | -16.29% | 10.85% |
| `CCc1ncc(C(=O)N2CCCOC(Cn3cccn3)C2)cn1` (stereo not shown) | 17.62% | -8.063% |
| `O=C(O)C(F)(F)F.[H][C@@]12CCN(Cc3ccoc3)C[C@@]1([H])O[C@H](C(=O)NC1CCCC1)C2` | 6.924% | 8.733% |
| `COc1cncc(N2CCN(Cc3ccco3)CC2)n1` | 10.3% | 0.5044% |
| `COC(=O)N1CCN(Cc2ccccc2Cl)CC1` | 9.291% | -0.5451% |
| `CCOC(=O)c1ccc(CNC(=O)c2ccncc2Cl)o1` | 11.46% | 8.263% |
| `CCC(CC)C(=O)NS(=O)(=O)c1ccc(C#N)cc1C(F)(F)F` | -1.179% and -14.32% | 1.413% |
| `CC(CS(C)(=O)=O)N(C(=O)CCc1ccsc1)C1CC1` (stereo not shown) | 22.92% | 5.237% |
| `COc1ccc(Nc2nc(N)c(C(C)=O)s2)cc1Cl` | -0.4643% | -18.21% |
| `COCCN1CCC(NC(=O)C2(c3cc(C)cc(C)c3)CC2)CC1` | 24.34% | -11.39% |
| `CN(CCC(=O)N1CCc2sccc2C1)Cc1ccc2c(c1)OCCO2` | 17.52% | -11.85% |
| `CN(C)c1nc(CNC(=O)Nc2cccc([S+](C)[O-])c2)cs1` (stereo not shown) | 9.265% | 9.159% |
| `CCC1(CNC(=O)NC(c2nnc3n2CCC3)C(C)C)CCC1` (stereo not shown) | -14.15% | -21.7% |
| `COCc1nc(C(=O)N2CCCC(n3ccnc3C(C)C)C2)cs1` (stereo not shown) | 14.6% | -1.519% |
| `CCc1cnc(CCNS(C)(=O)=O)s1` | -4.513% | -3.001% |
| `O=C(O)c1ccnc(-c2ccnc(NCCc3cscn3)n2)c1` | -23.63% | -23.05% |
| `CCc1ccc(O)c(C(=O)N2CCCN(CC(=O)N(CC)CC)CC2)c1` | -5.744% | 9.95% |
| `Cc1ccccc1C1CCN(CCn2cc(-c3cccc(O)c3)nn2)C1` (stereo not shown) | -0.6239% | -13.9% |
| `CCOCC1CN(C(=O)Cc2ccccn2)Cc2cn(CC)nc21` (stereo not shown) | -4.965% | -11.63% |
| `COCCN(C)C[C@H]1C[C@H](CO)CN(C(=O)c2ccn(C)c(=O)c2)C1` | -13.53% | -1.698% and -7.738% |
| `Cc1ccc(CNC(=O)Cn2nc(-c3ccc(F)cc3)oc2=O)cc1F` | -11.88% | -1.623% |

Repeated from the top, 2 entries:

SMILES	Mtb glucose medium	Mtb cholesterol medium
COCCN(Cc1ccc(F)cc1Cl)C(=O)c1cc(C)n[nH]1	2.583% and -2.425%	3.369%
O=C1CCc2cc(-c3csc(CCN4CCCC4=O)n3)ccc2N1	-15.05%	-26.1%

Data taken from ChEMBL document CHEMBL3988442, “University of Dundee, Small-Polar-MMV Screening Library” (2021).